# Literature values, collected in patent US20210145842A1, “NEW THERAPEUTIC USES” (NOVARTIS AG, priority 2018, published 2021).
# For at least one compound, name, drawing or mass did not settle the structure.
# Test system: patients with EGFR T790M-mutant NSCLC progressing on prior EGFR TKI
# Details: cited from earlier work
smiles,measurement,setting,value
C=CC(=O)Nc1cccc(Nc2nc(Nc3ccc(N4CCN(C(C)=O)CC4)cc3OC)ncc2C(F)(F)F)c1 [rociletinib],ORR (initial),initial report,59%
same,confirmed response rates,later analysis of mature data,28-45%
